Assay results from the supplement of paper PMC12823440, “Inhibitors supercharge kinase turnover through native proteolytic circuits” (Nature, 2025).
The list shows a part of the results. Hit calls seldom repeat between salt and free forms of one compound.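 In K562 cells expressing nanoluciferase-fused kinases, luminescence was recorded at 4 h intervals between 2 and 18 h, normalized as percent of control with DMSO at 100% and a positive control at 0%. A significant (2 sigma) signal drop marks a time point as decreased. The authors' rule for a hit is not shown and takes in more than the number of time points.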

Protein sequences, listed by entry. Tags and fused reporters are not part of them. Lines headed by an entry give the natural chain unless they say otherwise; changes in a name come on top.
UniProt P11362, whole entry, looked up: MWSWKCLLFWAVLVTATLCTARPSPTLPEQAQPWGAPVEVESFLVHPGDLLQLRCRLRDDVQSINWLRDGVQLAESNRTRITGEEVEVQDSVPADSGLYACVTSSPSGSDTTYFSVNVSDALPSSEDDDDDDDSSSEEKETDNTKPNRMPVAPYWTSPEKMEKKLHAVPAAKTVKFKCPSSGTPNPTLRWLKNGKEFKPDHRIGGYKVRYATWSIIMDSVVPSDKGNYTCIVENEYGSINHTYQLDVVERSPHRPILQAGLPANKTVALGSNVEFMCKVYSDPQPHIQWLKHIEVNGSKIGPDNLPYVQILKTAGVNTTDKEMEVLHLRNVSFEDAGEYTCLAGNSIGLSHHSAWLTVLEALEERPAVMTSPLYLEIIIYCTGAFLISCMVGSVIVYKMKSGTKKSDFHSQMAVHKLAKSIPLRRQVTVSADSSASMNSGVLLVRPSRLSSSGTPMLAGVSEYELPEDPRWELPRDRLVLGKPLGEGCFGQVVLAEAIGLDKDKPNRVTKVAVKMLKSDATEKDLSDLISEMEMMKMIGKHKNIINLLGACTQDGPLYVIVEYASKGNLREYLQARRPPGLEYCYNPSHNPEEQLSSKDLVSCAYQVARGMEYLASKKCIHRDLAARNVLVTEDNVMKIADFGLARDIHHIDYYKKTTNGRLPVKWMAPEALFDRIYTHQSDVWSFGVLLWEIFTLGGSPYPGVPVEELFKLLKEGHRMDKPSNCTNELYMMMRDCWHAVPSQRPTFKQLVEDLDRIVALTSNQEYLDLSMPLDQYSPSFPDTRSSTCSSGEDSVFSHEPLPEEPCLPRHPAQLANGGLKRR
UniProt Q9UM73: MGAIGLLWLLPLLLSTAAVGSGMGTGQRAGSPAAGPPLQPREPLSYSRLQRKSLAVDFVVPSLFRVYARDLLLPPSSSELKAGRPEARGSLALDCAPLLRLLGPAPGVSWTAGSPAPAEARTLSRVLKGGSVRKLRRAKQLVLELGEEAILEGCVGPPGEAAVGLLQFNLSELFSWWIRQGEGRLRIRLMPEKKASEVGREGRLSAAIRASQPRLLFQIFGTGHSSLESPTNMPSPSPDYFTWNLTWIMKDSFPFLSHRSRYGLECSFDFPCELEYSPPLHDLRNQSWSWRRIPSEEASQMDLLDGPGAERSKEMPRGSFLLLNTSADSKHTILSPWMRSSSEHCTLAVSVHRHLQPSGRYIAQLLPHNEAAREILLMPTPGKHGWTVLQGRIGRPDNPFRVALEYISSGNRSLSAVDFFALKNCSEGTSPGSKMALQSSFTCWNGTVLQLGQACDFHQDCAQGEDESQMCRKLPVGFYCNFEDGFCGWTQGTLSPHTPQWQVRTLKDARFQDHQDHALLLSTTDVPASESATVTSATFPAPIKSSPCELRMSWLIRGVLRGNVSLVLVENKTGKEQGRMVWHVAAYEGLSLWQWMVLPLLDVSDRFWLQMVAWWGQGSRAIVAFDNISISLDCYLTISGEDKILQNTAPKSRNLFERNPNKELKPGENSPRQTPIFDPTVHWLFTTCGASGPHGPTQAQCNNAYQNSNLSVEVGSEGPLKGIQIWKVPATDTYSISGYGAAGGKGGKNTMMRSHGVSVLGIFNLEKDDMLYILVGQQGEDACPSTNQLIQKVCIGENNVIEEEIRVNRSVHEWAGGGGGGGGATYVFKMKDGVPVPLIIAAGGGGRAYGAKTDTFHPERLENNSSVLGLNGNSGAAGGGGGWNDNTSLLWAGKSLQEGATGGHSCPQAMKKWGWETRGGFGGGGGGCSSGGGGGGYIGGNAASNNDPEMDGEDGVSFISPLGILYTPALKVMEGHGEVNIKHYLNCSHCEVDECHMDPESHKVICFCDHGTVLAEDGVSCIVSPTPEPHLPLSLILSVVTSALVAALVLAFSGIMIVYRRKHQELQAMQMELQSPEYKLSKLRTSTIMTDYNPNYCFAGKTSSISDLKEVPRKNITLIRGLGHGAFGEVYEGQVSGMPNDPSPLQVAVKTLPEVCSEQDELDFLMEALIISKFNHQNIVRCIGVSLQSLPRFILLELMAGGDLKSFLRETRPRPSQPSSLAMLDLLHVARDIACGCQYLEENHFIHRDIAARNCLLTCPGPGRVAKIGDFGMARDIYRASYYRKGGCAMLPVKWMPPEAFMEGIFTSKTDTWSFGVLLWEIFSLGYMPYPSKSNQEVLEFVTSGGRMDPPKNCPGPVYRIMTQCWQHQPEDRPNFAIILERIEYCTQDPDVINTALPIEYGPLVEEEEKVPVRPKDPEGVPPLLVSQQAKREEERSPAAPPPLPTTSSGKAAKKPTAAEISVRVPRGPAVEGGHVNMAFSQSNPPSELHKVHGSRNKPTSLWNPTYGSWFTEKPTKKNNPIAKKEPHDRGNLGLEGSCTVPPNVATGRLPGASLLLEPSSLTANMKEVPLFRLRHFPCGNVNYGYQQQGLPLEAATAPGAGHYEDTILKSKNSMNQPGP
UniProt Q9Y616: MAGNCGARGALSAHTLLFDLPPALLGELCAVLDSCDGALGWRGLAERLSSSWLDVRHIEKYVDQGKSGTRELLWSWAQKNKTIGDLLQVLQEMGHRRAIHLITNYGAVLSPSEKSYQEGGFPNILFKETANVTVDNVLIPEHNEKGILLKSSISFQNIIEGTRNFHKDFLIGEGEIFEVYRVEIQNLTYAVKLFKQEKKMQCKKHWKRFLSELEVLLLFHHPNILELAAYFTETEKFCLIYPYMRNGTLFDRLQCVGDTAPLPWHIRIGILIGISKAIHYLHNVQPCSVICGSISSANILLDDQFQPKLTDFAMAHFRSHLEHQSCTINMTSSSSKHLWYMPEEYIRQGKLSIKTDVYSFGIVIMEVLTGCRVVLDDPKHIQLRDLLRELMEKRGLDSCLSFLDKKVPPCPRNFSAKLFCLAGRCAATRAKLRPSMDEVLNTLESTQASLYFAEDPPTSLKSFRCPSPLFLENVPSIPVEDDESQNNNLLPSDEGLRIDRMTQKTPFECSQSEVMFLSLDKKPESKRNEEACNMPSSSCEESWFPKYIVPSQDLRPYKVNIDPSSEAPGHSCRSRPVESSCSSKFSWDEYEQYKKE
UniProt P36888, whole entry: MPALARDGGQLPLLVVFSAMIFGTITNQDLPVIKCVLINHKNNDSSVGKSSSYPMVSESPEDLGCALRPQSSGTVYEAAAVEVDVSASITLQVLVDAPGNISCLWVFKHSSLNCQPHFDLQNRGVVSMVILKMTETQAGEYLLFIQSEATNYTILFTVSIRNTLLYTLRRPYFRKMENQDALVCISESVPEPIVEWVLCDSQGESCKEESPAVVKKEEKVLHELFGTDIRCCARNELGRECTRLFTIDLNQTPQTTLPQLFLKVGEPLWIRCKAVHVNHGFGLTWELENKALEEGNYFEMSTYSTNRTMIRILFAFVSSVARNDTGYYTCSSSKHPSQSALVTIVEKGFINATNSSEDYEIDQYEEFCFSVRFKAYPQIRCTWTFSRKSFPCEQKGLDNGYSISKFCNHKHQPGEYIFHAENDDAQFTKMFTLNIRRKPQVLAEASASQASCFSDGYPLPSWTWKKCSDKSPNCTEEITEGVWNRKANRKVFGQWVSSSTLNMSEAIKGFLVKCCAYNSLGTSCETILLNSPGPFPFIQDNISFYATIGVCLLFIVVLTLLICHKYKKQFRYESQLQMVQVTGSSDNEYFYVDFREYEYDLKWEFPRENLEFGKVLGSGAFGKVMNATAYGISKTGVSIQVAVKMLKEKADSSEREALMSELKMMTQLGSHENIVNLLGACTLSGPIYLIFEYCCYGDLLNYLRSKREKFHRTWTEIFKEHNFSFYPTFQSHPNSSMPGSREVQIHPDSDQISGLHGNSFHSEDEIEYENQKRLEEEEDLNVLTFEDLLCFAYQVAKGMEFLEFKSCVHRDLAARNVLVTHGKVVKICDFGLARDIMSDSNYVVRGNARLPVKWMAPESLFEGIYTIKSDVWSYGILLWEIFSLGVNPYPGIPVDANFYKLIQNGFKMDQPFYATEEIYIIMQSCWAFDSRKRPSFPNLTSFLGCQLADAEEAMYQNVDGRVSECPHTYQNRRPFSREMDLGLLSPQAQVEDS
UniProt Q9UQB9: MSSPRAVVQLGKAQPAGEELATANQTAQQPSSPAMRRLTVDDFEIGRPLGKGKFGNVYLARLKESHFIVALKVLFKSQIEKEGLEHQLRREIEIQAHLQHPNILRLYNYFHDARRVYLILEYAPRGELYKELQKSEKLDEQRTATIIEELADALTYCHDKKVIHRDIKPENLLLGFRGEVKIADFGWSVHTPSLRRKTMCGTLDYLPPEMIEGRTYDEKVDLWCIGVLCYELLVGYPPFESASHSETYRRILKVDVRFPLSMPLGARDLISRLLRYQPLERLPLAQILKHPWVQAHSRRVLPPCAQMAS
UniProt P22607, whole entry, looked up: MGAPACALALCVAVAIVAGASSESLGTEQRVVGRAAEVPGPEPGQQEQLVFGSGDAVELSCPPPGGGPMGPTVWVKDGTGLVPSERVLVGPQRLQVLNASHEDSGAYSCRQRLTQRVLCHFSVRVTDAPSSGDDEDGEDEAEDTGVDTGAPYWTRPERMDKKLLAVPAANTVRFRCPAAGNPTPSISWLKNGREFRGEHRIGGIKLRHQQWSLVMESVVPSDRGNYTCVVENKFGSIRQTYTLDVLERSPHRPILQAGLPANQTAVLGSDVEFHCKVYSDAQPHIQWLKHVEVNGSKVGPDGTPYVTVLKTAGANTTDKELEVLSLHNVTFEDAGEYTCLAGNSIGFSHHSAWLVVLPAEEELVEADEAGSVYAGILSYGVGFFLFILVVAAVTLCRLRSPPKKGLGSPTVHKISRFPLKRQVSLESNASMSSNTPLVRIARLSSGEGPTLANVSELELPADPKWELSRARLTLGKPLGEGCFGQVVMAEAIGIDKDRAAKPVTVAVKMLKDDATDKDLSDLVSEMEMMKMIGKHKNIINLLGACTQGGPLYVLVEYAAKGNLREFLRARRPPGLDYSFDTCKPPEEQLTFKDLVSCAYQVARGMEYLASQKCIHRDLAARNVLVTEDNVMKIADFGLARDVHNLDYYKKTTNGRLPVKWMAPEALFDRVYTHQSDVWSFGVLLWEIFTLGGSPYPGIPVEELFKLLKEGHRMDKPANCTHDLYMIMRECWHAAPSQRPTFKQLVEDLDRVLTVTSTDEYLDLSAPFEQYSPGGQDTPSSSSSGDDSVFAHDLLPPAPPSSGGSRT
UniProt Q16288, whole entry, looked up: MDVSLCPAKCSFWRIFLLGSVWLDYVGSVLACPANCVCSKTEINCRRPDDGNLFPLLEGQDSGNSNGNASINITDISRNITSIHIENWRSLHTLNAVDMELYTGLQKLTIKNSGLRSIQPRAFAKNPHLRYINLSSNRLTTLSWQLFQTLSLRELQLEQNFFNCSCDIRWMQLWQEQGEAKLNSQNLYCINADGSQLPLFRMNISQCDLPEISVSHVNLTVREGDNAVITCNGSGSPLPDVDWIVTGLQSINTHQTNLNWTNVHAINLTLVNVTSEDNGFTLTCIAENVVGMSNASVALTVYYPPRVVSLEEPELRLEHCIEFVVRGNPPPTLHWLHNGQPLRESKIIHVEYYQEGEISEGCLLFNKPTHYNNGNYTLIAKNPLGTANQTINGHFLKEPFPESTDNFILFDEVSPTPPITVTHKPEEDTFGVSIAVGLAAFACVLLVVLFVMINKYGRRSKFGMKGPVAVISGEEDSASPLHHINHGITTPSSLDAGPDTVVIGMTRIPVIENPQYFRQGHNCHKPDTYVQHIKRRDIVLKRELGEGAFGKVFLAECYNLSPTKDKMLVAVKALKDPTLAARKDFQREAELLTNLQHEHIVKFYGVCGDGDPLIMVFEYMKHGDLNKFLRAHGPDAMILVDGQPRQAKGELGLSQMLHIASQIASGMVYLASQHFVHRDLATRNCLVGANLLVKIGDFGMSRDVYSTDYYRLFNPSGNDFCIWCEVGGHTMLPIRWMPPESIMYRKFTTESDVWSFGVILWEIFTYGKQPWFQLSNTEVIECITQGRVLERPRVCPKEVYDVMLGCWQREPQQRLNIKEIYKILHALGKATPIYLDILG
UniProt P07948: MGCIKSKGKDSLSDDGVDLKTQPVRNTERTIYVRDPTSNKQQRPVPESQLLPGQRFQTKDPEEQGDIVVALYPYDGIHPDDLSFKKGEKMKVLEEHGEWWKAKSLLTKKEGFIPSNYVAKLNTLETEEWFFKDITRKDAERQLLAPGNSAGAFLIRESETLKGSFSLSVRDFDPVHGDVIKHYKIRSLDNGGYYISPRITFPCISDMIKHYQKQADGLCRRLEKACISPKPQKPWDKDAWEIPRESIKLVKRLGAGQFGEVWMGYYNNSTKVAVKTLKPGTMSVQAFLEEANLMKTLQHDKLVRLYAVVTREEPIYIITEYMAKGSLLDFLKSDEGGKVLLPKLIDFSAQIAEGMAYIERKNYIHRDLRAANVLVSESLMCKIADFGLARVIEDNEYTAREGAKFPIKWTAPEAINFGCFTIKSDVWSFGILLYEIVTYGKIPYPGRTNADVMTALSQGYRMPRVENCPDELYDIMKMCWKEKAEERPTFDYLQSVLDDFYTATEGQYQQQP

What was measured:
Test in all cases: number of time points (of 5) at which kinase-Nluc abundance scored as decreased, DMSO-normalised (count); higher = more persistent destabilization
KN-93 (phosphate) = compound: COc1ccc(S(=O)(=O)N(CCO)c2ccccc2CN(C)C/C=C/c2ccc(Cl)cc2)cc1 [KN-93 (phosphate)]; settings: 2.5 µM; K562; 2-18 h
KN-92 (hydrochloride) = compound: COc1ccc(S(=O)(=O)Nc2ccccc2CN(C)C/C=C/c2ccc(Cl)cc2)cc1 [KN-92 (hydrochloride)]; settings: 2.5 µM; K562; 2-18 h
KN-92 (phosphate) = compound: COc1ccc(S(=O)(=O)Nc2ccccc2CN(C)C/C=C/c2ccc(Cl)cc2)cc1 [KN-92 (phosphate)]; settings: 2.5 µM; K562; 2-18 h
AX-024 hydrochloride = compound: COc1ccc2c(c1)C(c1ccc(F)cc1)=C(CN1CCCC1)CO2 [AX-024 hydrochloride]; settings: 10 µM; K562; 2-18 h
[1] = compound: COc1ccc2c(c1)C(c1ccc(F)cc1)=C(CN1CCCC1)CO2; settings: 10 µM; K562; 2-18 h
Ilaprazole (sodium) = compound: COc1ccnc(C[S+]([O-])c2nc3cc(-n4cccc4)ccc3[nH]2)c1C [Ilaprazole (sodium)]; settings: 10 µM; K562; 2-18 h
Ilaprazole = compound: COc1ccnc(C[S+]([O-])c2nc3cc(-n4cccc4)ccc3[nH]2)c1C [Ilaprazole]; settings: 10 µM; K562; 2-18 h
PLX5622 (hemifumarate) = compound: COc1ncc(F)cc1CNc1ccc(Cc2c[nH]c3ncc(C)cc23)c(F)n1 [PLX5622 (hemifumarate)]; settings: 10 µM; K562; 2-18 h
[2] = compound: COc1ncc(F)cc1CNc1ccc(Cc2c[nH]c3ncc(C)cc23)c(F)n1; settings: 10 µM; K562; 2-18 h
[3] = compound: CS(=O)(=O)N1CCN(Cc2cc3nc(-c4cccc5[nH]ncc45)nc(N4CCOCC4)c3s2)CC1 [Pictilisib (dimethanesulfonate)]; settings: 10 µM; K562; 2-18 h
Pictilisib = compound: CS(=O)(=O)N1CCN(Cc2cc3nc(-c4cccc5[nH]ncc45)nc(N4CCOCC4)c3s2)CC1 [Pictilisib]; settings: 10 µM; K562; 2-18 h
[4] = compound: C[C@@H](N)[C@H]1CC[C@H](C(=O)Nc2ccncc2)CC1; settings: 10 µM; K562; 2-18 h
[5] = compound: C[C@@H](N)c1ccc(C(=O)Nc2ccnc3[nH]ccc23)cc1; settings: 10 µM; K562; 2-18 h
[6] = compound: C[C@H](CCC(=O)NCCS(=O)(=O)O)[C@H]1CC[C@H]2[C@@H]3[C@@H](O)C[C@@H]4C[C@H](O)CC[C@]4(C)[C@H]3CC[C@]12C [Tauroursodeoxycholate (dihydrate)]; settings: 10 µM; K562; 2-18 h
[7] = compound: C[C@H](CCC(=O)NCCS(=O)(=O)O)[C@H]1CC[C@H]2[C@@H]3[C@@H](O)C[C@@H]4C[C@H](O)CC[C@]4(C)[C@H]3CC[C@]12C [Tauroursodeoxycholate (sodium)]; settings: 10 µM; K562; 2-18 h
[8] = compound: C[C@H](Nc1cc(-c2cnn(C)c2)cc(Nc2cnccn2)n1)c1ccc(F)cc1 [Ilginatinib hydrochloride]; settings: 2.5 µM; K562; 2-18 h
Ilginatinib = compound: C[C@H](Nc1cc(-c2cnn(C)c2)cc(Nc2cnccn2)n1)c1ccc(F)cc1 [Ilginatinib]; settings: 2.5 µM; K562; 2-18 h
[9] = compound: C[S+]([O-])c1ccc(-c2nc(-c3ccc(F)cc3)c(-c3ccncc3)[nH]2)cc1; settings: 10 µM; K562; 2-18 h
Toceranib (phosphate) = compound: Cc1[nH]c(/C=C2\C(=O)Nc3ccc(F)cc32)c(C)c1C(=O)NCCN1CCCC1 [Toceranib (phosphate)]; settings: 2 µM; K562; 2-18 h
Toceranib = compound: Cc1[nH]c(/C=C2\C(=O)Nc3ccc(F)cc32)c(C)c1C(=O)NCCN1CCCC1 [Toceranib]; settings: 2 µM; K562; 2-18 h

Measured: number of time points

BLK (UniProt P51451)
0: KN-93 (phosphate) | KN-92 (hydrochloride) | KN-92 (phosphate) | AX-024 hydrochloride | [1] | Ilaprazole (sodium) | Ilaprazole | PLX5622 (hemifumarate) | [2] | [3] | Pictilisib | [4] | [5] | [6] | [7] | [8] | Ilginatinib | [9] | Toceranib (phosphate) | Toceranib

FGFR1 (UniProt P11362)
1: Ilginatinib
0: KN-93 (phosphate) | KN-92 (hydrochloride) | KN-92 (phosphate) | AX-024 hydrochloride | [1] | Ilaprazole (sodium) | Ilaprazole | PLX5622 (hemifumarate) | [2] | [3] | Pictilisib | [4] | [5] | [6] | [7] | [8] | [9] | Toceranib (phosphate) | Toceranib

HER2 (UniProt P04626)
1: [8]
0: KN-93 (phosphate) | KN-92 (hydrochloride) | KN-92 (phosphate) | AX-024 hydrochloride | [1] | Ilaprazole (sodium) | Ilaprazole | PLX5622 (hemifumarate) | [2] | [3] | Pictilisib | [4] | [5] | [6] | [7] | [9] | Toceranib (phosphate) | Toceranib
2: Ilginatinib

PTK2 (UniProt Q05397)
0: KN-93 (phosphate) | KN-92 (hydrochloride) | KN-92 (phosphate) | AX-024 hydrochloride | [1] | Ilaprazole (sodium) | Ilaprazole | PLX5622 (hemifumarate) | [2] | [3] | Pictilisib | [4] | [5] | [6] | [7] | [8] | Ilginatinib | [9] | Toceranib (phosphate) | Toceranib

BTK (UniProt Q06187)
0: KN-93 (phosphate) | KN-92 (hydrochloride) | KN-92 (phosphate) | AX-024 hydrochloride | [1] | Ilaprazole (sodium) | Ilaprazole | PLX5622 (hemifumarate) | [2] | [3] | Pictilisib | [4] | [5] | [6] | [7] | [8] | Ilginatinib | [9] | Toceranib (phosphate) | Toceranib

ALK (UniProt Q9UM73)
1: [8]
2: Ilginatinib
0: KN-93 (phosphate) | KN-92 (hydrochloride) | KN-92 (phosphate) | AX-024 hydrochloride | [1] | Ilaprazole (sodium) | Ilaprazole | PLX5622 (hemifumarate) | [2] | [3] | Pictilisib | [4] | [5] | [6] | [7] | [9] | Toceranib (phosphate) | Toceranib

NTRK2 (UniProt Q16620)
0: KN-93 (phosphate) | KN-92 (hydrochloride) | KN-92 (phosphate) | AX-024 hydrochloride | [1] | Ilaprazole (sodium) | Ilaprazole | PLX5622 (hemifumarate) | [2] | [3] | Pictilisib | [4] | [5] | [6] | [7] | Ilginatinib | [9] | Toceranib (phosphate) | Toceranib
1: [8]

2 neighbouring records already listed, for reference:
HER2 (UniProt P04626)
1: [8]
0: KN-93 (phosphate) | KN-92 (hydrochloride) | KN-92 (phosphate) | AX-024 hydrochloride | [1] | Ilaprazole (sodium) | Ilaprazole | PLX5622 (hemifumarate) | [2] | [3] | Pictilisib | [4] | [5] | [6] | [7] | [9] | Toceranib (phosphate) | Toceranib
2: Ilginatinib

PTK2 (UniProt Q05397)
0: KN-93 (phosphate) | KN-92 (hydrochloride) | KN-92 (phosphate) | AX-024 hydrochloride | [1] | Ilaprazole (sodium) | Ilaprazole | PLX5622 (hemifumarate) | [2] | [3] | Pictilisib | [4] | [5] | [6] | [7] | [8] | Ilginatinib | [9] | Toceranib (phosphate) | Toceranib

Later entries:

IRAK3 (UniProt Q9Y616)
3: Ilginatinib
4: [8]
0: KN-93 (phosphate) | KN-92 (hydrochloride) | KN-92 (phosphate) | AX-024 hydrochloride | [1] | Ilaprazole (sodium) | Ilaprazole | PLX5622 (hemifumarate) | [2] | [3] | Pictilisib | [4] | [5] | [6] | [7] | [9] | Toceranib (phosphate) | Toceranib

FLT3 (UniProt P36888)
3: [8] | Ilginatinib
0: KN-93 (phosphate) | KN-92 (hydrochloride) | KN-92 (phosphate) | AX-024 hydrochloride | [1] | Ilaprazole (sodium) | Ilaprazole | PLX5622 (hemifumarate) | [2] | [3] | Pictilisib | [4] | [5] | [6] | [7] | [9] | Toceranib (phosphate) | Toceranib

GSK3A (UniProt P49840)
0: KN-93 (phosphate) | KN-92 (hydrochloride) | KN-92 (phosphate) | AX-024 hydrochloride | [1] | Ilaprazole (sodium) | Ilaprazole | PLX5622 (hemifumarate) | [2] | [3] | Pictilisib | [4] | [5] | [6] | [7] | [8] | Ilginatinib | [9] | Toceranib (phosphate) | Toceranib

AURKC (UniProt Q9UQB9)
0: KN-93 (phosphate) | KN-92 (hydrochloride) | KN-92 (phosphate) | AX-024 hydrochloride | [1] | Ilaprazole (sodium) | Ilaprazole | PLX5622 (hemifumarate) | [2] | [3] | Pictilisib | [4] | [5] | [6] | [7] | [8] | Ilginatinib | [9] | Toceranib (phosphate) | Toceranib

ERBB3 (UniProt P21860)
3: Ilginatinib
0: KN-93 (phosphate) | KN-92 (hydrochloride) | KN-92 (phosphate) | AX-024 hydrochloride | [1] | Ilaprazole (sodium) | Ilaprazole | PLX5622 (hemifumarate) | [2] | [3] | Pictilisib | [4] | [5] | [6] | [7] | [9] | Toceranib (phosphate) | Toceranib
5: [8]

SRC (UniProt P12931)
0: KN-93 (phosphate) | KN-92 (hydrochloride) | KN-92 (phosphate) | AX-024 hydrochloride | [1] | Ilaprazole (sodium) | Ilaprazole | PLX5622 (hemifumarate) | [2] | [3] | Pictilisib | [4] | [5] | [6] | [7] | [8] | Ilginatinib | [9] | Toceranib (phosphate) | Toceranib

FGFR3 (UniProt P22607)
0: KN-93 (phosphate) | KN-92 (hydrochloride) | KN-92 (phosphate) | AX-024 hydrochloride | [1] | Ilaprazole (sodium) | Ilaprazole | PLX5622 (hemifumarate) | [2] | [3] | Pictilisib | [4] | [5] | [6] | [7] | [8] | Ilginatinib | [9] | Toceranib (phosphate) | Toceranib

NTRK3 (UniProt Q16288)
0: KN-93 (phosphate) | KN-92 (hydrochloride) | KN-92 (phosphate) | AX-024 hydrochloride | [1] | Ilaprazole (sodium) | Ilaprazole | PLX5622 (hemifumarate) | [2] | [3] | Pictilisib | [4] | [5] | [6] | [7] | [9] | Toceranib (phosphate) | Toceranib
1: [8] | Ilginatinib

LYN (UniProt P07948)
0: KN-93 (phosphate) | KN-92 (hydrochloride) | KN-92 (phosphate) | AX-024 hydrochloride | [1] | Ilaprazole (sodium) | Ilaprazole | PLX5622 (hemifumarate) | [2] | [3] | Pictilisib | [4] | [5] | [6] | [7] | [8] | Ilginatinib | [9] | Toceranib (phosphate) | Toceranib
